Results deposited as PubChem BioAssay AID1259308 (NCATS, 2017).

Purpose: 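Genes whose loss raises luciferase production in HEK293 cells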 (primary screen)
Cell system: human HEK293 embryonic kidney cells stably expressing firefly luciferase (HEK-CMV-Luc2-Hygro)
Reagents: single siRNA against human genes, 0.8 pmol siRNA per well
Time to read-out: 72 h
Measurement: 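Luciferase light (ONE-Glo) measured on one replicate plate set and viability (CellTiter-Glo) on the other, scaled to a negative control siRNA, with robust z-scores and luciferase per cell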
Direction: total luciferase, z-score and total luciferase, % of control: higher = more reporter protein produced; luciferase per cell, z-score: higher = more reporter output per viable cell; viable cells, % of control: higher = more viable cells
Rule for the call: 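Active when the median/MAD z-score for overall luciferase is greater than 3; a gene was taken forward for validation with new siRNAs if at least two of its three siRNAs passed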
Meaning of the calls: active = raised luciferase; inactive = no rise
Shown is a random part of about 59,000 reagents. About 1,510 of all reagents (2.6%) were called active. 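Calls use total luciferase alone and ignore viability, so some active siRNAs may act by altering cell number.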 Reagents against one gene are numbered here.

| gene knocked down | siRNA no. | total luciferase, z-score | total luciferase, % of control | luciferase per cell, z-score | viable cells, % of control | Outcome |
| --- | --- | --- | --- | --- | --- | --- |
| FAM107A | 1 | -1.88 | 44.4 | -1.5 | 73.7 | inactive |
| FAM107A | 2 | -0.424 | 73.5 | -1.34 | 117 | inactive |
| FAM107A | 3 | 0.0435 | 82.8 | 0.241 | 86.8 | inactive |
| VPS37B | 1 | 0.891 | 99.6 | 0.642 | 94 | inactive |
| VPS37B | 2 | -0.276 | 76.4 | -0.291 | 92.2 | inactive |
| VPS37B | 3 | -0.832 | 65.3 | 1.62 | 47.6 | inactive |
| IL11RA | 1 | 0.208 | 86 | 0.311 | 88.6 | inactive |
| IL11RA | 2 | 0.0353 | 82.6 | 0.97 | 71.5 | inactive |
| IL11RA | 3 | -0.819 | 65.6 | -0.959 | 94.4 | inactive |
| LINC02939 | 1 | -0.239 | 77.1 | -0.46 | 97.3 | inactive |
| LINC02939 | 2 | 3.48 | 151 | 2.58 | 85.7 | active |
| LINC02939 | 3 | 0.181 | 85.5 | 0.664 | 80.2 | inactive |
| CEP57L1 | 1 | 0.288 | 87.6 | -0.135 | 101 | inactive |
| CEP57L1 | 2 | -1.06 | 60.8 | 0.554 | 58.7 | inactive |
| CEP57L1 | 3 | 2.39 | 129 | 1.65 | 93.6 | inactive |
| VEZF1 | 1 | -1.88 | 44.5 | -2.17 | 88.2 | inactive |
| VEZF1 | 2 | -0.203 | 77.9 | -0.714 | 105 | inactive |
| VEZF1 | 3 | 1.49 | 111 | 0.444 | 111 | inactive |
| HIVEP1 | 1 | 0.879 | 99.4 | 0.872 | 88.3 | inactive |
| HIVEP1 | 2 | 0.61 | 94 | 1.19 | 76.7 | inactive |
| HIVEP1 | 3 | 1.88 | 119 | 1.76 | 83.9 | inactive |
| C16orf90 | 1 | 0.609 | 94 | 1.54 | 70 | inactive |
| C16orf90 | 2 | 0.452 | 90.9 | 1.1 | 76 | inactive |
| C16orf90 | 3 | 1.37 | 109 | 1.71 | 77.9 | inactive |
| RPS20 | 1 | -3.38 | 14.7 | -4.18 | 49.3 | inactive |
| RPS20 | 2 | -2.37 | 34.8 | -1.04 | 51.2 | inactive |
| RPS20 | 3 | -2.04 | 41.3 | -1.6 | 70.4 | inactive |
| DNAJC6 | 1 | -1.78 | 46.5 | -0.89 | 65.7 | inactive |
| DNAJC6 | 2 | 0.688 | 95.6 | 0.0725 | 105 | inactive |
| DNAJC6 | 3 | -1.37 | 54.6 | -0.859 | 76.6 | inactive |

Part of the list above in another layout.
gene knocked down	siRNA no.	total luciferase, z-score	total luciferase, % of control	luciferase per cell, z-score	viable cells, % of control	Outcome
VEZF1	3	1.49	111	0.444	111	inactive
HIVEP1	1	0.879	99.4	0.872	88.3	inactive
HIVEP1	2	0.61	94	1.19	76.7	inactive
HIVEP1	3	1.88	119	1.76	83.9	inactive
C16orf90	1	0.609	94	1.54	70	inactive
C16orf90	2	0.452	90.9	1.1	76	inactive
C16orf90	3	1.37	109	1.71	77.9	inactive
RPS20	1	-3.38	14.7	-4.18	49.3	inactive

The results go on:
| gene knocked down | siRNA no. | total luciferase, z-score | total luciferase, % of control | luciferase per cell, z-score | viable cells, % of control | Outcome |
| --- | --- | --- | --- | --- | --- | --- |
| TMCO5B | 1 | -0.472 | 72.5 | -0.139 | 84 | inactive |
| TMCO5B | 2 | -0.487 | 72.2 | -0.476 | 91.5 | inactive |
| TMCO5B | 3 | -0.698 | 68 | -0.971 | 98.1 | inactive |
| RAB5A | 1 | -0.113 | 79.6 | 0.722 | 73.6 | inactive |
| RAB5A | 2 | 1.01 | 102 | 0.499 | 99.9 | inactive |
| RAB5A | 3 | 1.1 | 104 | 0.905 | 91.3 | inactive |
| KDM5C | 1 | -0.799 | 66 | 0.0653 | 72.5 | inactive |
| KDM5C | 2 | 0.398 | 89.8 | 0.396 | 90.4 | inactive |
| KDM5C | 3 | 0.387 | 89.6 | 0.937 | 78.2 | inactive |
| UHMK1 | 1 | 1.01 | 102 | 0.587 | 97.6 | inactive |
| UHMK1 | 2 | -0.585 | 70.3 | -1.04 | 103 | inactive |
| UHMK1 | 3 | -0.628 | 69.4 | -1.06 | 102 | inactive |
| LDLRAD4 | 1 | -0.371 | 74.5 | -0.176 | 87.2 | inactive |
| LDLRAD4 | 2 | 0.176 | 85.4 | 0.706 | 79.2 | inactive |
| LDLRAD4 | 3 | 4.01 | 162 | 2.59 | 91.4 | active |
| COA8 | 1 | -0.787 | 66.2 | -0.22 | 78.4 | inactive |
| COA8 | 2 | -0.923 | 63.5 | -1.3 | 100 | inactive |
| COA8 | 3 | 3.4 | 149 | 2.42 | 88.3 | active |
| LINC01913 | 1 | 0.572 | 93.3 | 0.466 | 92.2 | inactive |
| LINC01913 | 2 | -0.353 | 74.9 | -1.15 | 113 | inactive |
| LINC01913 | 3 | 0.866 | 99.1 | 0.222 | 104 | inactive |
| IL17F | 1 | -1.45 | 53 | -1.27 | 82.8 | inactive |
| IL17F | 2 | 0.754 | 96.9 | 1.88 | 66 | inactive |
| IL17F | 3 | 0.859 | 99 | 0.467 | 97.8 | inactive |
| SNTG1 | 1 | -0.308 | 75.8 | -0.574 | 98.5 | inactive |
| SNTG1 | 2 | 1.83 | 118 | 1.37 | 92.2 | inactive |
| SNTG1 | 3 | -0.679 | 68.4 | -0.967 | 98.6 | inactive |
